# Laboratory results taken from patent US4717715 (dated 1988).
# Test: general procedure: Boc solid-phase peptide synthesis; benzhydrylamine resin (BHA); Boc-Arg(Tos)-O-Bzl-Resin for acids; DCC/HBT; DMAP for Pmp(4-MeBzl)
# Settings: whole synthesis, HPLC (0.1% TFA/CH3CN), scale of the general procedure 1.0 mmol, one disulfide bridge, sequence written open
row,Substance,final purity (method not given)
1,Pmp(4-MeBzl)-D-Tyr(Et)-Phe-Val-Asn-Cys(4-MeBzl)-Arg(Tos)-D-Arg(Tos)-BHA,98% pure
2,Pmp(4-MeBzl)-D-Tyr(Et)-Phe-Val-Asn-Cys(4-MeBzl)-D-Arg(Tos)-Arg(Tos)-BHA,96-97% pure
3,Pmp-(4-MeBzl)-D-Tyr(Et)-Phe-Val-Asn-Cys(4-MeBzl)-Arg(Tos)-Lys(ClZ)-BHA,96-97% pure
4,Pmp-(4-MeBzl)-D-Tyr(Et)-Phe-Val-Asn-Cys(4-MeBzl)-Lys(ClZ)-Arg(Tos)-BHA,98-99% pure
5,Pmp-(4-MeBzl)-D-Tyr(Et)-Phe-Val-Asn-Cys(4-MeBzl)-N-MeArg-(Tos)-Arg(Tos)-BHA,97-98% pure

# Same assay, conditions: whole synthesis, scale 1.0 mmol, one disulfide bridge, sequence written open
row,Substance,crude mass [g]
1,Pmp-(4-MeBzl)-D-Tyr(Et)-Phe-Val-Asn-Cys(4-MeBzl)-D-Arg(Tos)-D-Arg(Tos)-BHA,>1.0
